PubChem BioAssay AID504444 (National Center for Advancing Translational Sciences (NCATS), 2011)
The whole screen tested about 360,000 compounds, of which about 7,500 (2.1%) were called active. Calls come from the whole dose curve; as a rule, active = well fitted inhibition curve with a large enough effect; inconclusive = small, poorly fitted or top-dose-only effect, or effect the other way; inactive = flat fitted curve, though single readings scatter. Inconclusive results, whose numbers are uncertain, are shown. Where the call is inconclusive, the potency comes from a doubtful curve fit.

Assay: Nrf2 qHTS screen for inhibitors; note: nearly all actives have a fitted effect of over 60% in size
Conditions: A549 ARE-Fluc reporter, luciferase luminescence, 18-24 h; series mostly up to 46 µM
Description: NIH Molecular Libraries Probe Production Network [MLPCN]
NIH Chemical Genomics Center [NCGC]
Assay Provider: Shyam Biswal, Johns Hopkins University
Nrf2 is a transcription factor that maintains cellular redox homoestasis and protects cells from xenobiotics. Nrf2 binds to the antioxidant response element (ARE) to induce gene expression of a broad spectrum of genes that encode for antioxidants. […] Finding a small molecule that act as an inhibitor of Nrf2 function would represent a novel therapeutic target that could lead to improvement in survival of patients undergoing chemo- and/or radio- therapy.
This is the Nrf2 activity measured in the luminescent read.
1. […]
A concentration-response assay was performed with A549 ARE_Fluc cells which are suspended in 5% FBS OPTI-MEM. […] The plate is then incubated at 37deg C at 5% CO2 for 30 minutes before they are read on the ViewLux (Perkin Elmer) for a fluorescent read Ex=405(10)/Em=525(10) for a 3 second exposure, 2x binning, and high gain. […] Afterwards another ViewLux read is performed using the clear filter to get a luminescent read with the settings of 40 second exposure, 2x binning, and high gain. Cytotoxicity is assessed through the first fluorescent read and then biochemical activity against Nrf2 is measured in the luminescent read.
Potency is the fitted concentration of half-maximal effect.

Question: For O=C(O)Cn1cc(/C=c2/sc3nc4ccccc4n3c2=O)c2ccccc21, which Potency is on record?
Answer: Its Potency is inconclusive: 2590 nM [activator, partial curve].
